## Screening data, single-dose tests

Amino acid sequences for entries named in this document (tags omitted). Residues count along the entry.
UniProt P9WPC5, whole entry: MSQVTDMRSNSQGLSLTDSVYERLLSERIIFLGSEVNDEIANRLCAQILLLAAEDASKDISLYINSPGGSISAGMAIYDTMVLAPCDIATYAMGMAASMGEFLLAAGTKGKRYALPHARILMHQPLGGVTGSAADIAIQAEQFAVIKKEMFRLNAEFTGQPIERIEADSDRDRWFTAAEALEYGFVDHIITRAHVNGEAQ
UniProt P9WPC3, whole entry partner: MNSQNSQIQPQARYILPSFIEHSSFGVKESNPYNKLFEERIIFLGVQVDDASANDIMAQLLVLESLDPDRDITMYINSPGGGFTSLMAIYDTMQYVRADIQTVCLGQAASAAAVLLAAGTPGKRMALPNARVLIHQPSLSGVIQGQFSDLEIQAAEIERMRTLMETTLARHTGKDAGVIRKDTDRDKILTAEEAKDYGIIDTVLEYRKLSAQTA
UniProt I6X8D2, whole entry: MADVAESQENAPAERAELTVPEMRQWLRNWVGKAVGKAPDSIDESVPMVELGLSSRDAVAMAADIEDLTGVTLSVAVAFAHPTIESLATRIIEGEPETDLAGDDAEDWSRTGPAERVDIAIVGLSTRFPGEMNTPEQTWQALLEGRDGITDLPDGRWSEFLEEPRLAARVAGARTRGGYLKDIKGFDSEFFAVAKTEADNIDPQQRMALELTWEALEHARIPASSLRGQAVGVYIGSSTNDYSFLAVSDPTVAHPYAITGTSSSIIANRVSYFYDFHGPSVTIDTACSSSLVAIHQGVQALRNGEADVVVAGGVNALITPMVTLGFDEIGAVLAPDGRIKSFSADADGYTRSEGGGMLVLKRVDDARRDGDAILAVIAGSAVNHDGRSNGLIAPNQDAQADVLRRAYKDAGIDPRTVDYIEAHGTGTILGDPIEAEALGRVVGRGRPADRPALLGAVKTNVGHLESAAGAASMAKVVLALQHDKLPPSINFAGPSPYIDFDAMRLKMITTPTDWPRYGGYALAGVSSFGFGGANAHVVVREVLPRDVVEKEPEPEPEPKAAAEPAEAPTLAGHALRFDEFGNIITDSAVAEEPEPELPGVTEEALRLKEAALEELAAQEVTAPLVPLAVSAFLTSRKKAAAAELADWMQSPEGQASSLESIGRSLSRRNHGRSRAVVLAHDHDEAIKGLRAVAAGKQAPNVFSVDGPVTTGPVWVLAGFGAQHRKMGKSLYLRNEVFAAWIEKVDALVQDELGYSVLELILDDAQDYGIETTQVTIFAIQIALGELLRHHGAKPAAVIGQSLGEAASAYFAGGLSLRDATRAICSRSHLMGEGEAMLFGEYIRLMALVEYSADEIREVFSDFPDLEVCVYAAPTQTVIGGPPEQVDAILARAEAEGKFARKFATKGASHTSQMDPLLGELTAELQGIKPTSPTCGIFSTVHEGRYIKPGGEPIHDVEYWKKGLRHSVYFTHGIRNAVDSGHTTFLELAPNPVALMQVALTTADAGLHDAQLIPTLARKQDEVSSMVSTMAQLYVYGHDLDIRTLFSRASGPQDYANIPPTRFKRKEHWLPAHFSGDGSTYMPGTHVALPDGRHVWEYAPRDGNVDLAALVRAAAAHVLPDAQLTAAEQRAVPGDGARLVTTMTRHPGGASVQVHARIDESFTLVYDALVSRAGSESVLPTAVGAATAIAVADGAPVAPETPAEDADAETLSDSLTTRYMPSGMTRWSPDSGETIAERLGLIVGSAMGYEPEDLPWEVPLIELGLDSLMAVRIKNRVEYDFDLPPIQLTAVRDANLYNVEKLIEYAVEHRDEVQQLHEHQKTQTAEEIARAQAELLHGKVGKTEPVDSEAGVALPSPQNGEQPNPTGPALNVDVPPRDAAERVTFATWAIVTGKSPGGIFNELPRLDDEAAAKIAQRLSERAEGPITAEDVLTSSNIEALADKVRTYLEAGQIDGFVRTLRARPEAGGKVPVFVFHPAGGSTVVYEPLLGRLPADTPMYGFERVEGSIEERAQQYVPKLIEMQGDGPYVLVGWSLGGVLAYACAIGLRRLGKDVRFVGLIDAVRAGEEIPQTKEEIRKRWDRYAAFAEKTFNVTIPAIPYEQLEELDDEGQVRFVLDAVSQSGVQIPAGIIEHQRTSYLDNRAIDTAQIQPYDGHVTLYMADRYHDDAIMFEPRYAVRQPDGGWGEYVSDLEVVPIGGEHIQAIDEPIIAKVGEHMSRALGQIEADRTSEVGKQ
UniProt Q8IDJ8, 1-583: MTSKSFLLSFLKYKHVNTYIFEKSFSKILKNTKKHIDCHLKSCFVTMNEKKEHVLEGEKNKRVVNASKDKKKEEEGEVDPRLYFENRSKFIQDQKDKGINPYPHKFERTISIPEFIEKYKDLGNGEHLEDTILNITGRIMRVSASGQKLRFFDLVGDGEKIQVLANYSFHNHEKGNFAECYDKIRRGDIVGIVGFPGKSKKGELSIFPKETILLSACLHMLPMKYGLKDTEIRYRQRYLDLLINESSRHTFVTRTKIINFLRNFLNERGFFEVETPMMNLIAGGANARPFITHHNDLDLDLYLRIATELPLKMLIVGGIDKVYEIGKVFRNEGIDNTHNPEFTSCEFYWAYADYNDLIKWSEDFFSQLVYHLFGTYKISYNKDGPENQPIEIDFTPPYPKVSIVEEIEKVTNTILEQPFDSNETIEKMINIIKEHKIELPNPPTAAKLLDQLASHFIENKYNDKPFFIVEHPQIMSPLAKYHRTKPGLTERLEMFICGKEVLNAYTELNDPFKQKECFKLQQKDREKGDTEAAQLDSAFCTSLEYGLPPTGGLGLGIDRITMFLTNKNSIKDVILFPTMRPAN

Source: ChEMBL document CHEMBL3988442, “University of Dundee, Small-Polar-MMV Screening Library” (2021).

Each number is a percent effect as filed.
The record does not define 0% and 100%; most values in the screen are far below 50% and negative numbers occur (in some assays of this library far below -100).
The compounds are a random part of those screened.
Two or more numbers in one place are separate tests of the same structure; such repeats can differ widely.
A dash means the value is not listed here; it may have been measured.

ClpP1P2: 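Protease assay of ClpP1P2, read by the AMC dye that it sets free. Target: ClpP1P2, Mycobacterium tuberculosis (UniProt P9WPC5 and UniProt P9WPC3). Tested at 50 µM. Direction is inferred from only a few compounds that gave an IC50; most scored high, so higher reads as stronger inhibition. Most other retested compounds had strongly negative values. About 69,000 compounds were tested under these conditions; 0.015% (about 10) showed 50% or more at least once.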
Leishmania in macrophages: 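Cell assay of Leishmania donovani living inside macrophages; the read-out is not stated. Compounds at 30 µM. Higher reads as stronger inhibition (inferred: compounds with an IC50 in retests scored well above the rest). Of about 69,000 compounds tested this way, about 1,000 (1.5%) reached 50% or more in at least one test.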
Pks13 thioesterase: 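Polyketide synthase Pks13, Mycobacterium tuberculosis (UniProt I6X8D2). Enzyme assay of the thioesterase domain of polyketide synthase 13; the read-out is not stated. Concentration: 30 µM. Higher reads as stronger inhibition (inferred from which compounds were picked for retests). Of about 67,000 compounds tested this way, about 300 (0.46%) reached 50% or more in at least one test.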
PfKRS1: 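Enzyme assay of the cytosolic lysyl-tRNA synthetase in 384-well plates, read by luminescence. Target: Lysine-tRNA ligase, Plasmodium falciparum 3D7 (UniProt Q8IDJ8). Concentration: 30 µM. Higher reads as stronger inhibition, judged from the few compounds that gave an IC50. Size under these conditions: about 69,000 compounds, about 49 of them at 50% or above in at least one test.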
Toxoplasma: 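Assay of Toxoplasma gondii numbers, read through their beta-galactosidase reporter with a colour substrate. Compounds at 10 µM. Higher reads as fewer parasites (inferred from which compounds were picked for retests). Of about 67,000 compounds tested this way, about 260 (0.38%) reached 50% or more in at least one test.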

structure,ClpP1P2,Leishmania in macrophages,Pks13 thioesterase,PfKRS1,Toxoplasma
O=C1CCNc2ccc(F)cc2CN1Cc1ccco1,20.91,-5.911,3,9.975,1.231
COCC(=O)N[C@H](C)c1onc(-c2ccc(OC)cc2)c1C(=O)O,5.099,4.146,32.21,-2.799,-6.268
CCn1c(CN2CCCN(C(=O)OC)CC2)nc2c(F)cccc21,11.57,4.363,-18.32,3.02,-3.387
COCCn1cc2c(n1)C(CNCc1ccsc1)OCC2.O=C(O)C(F)(F)F (stereo not given),-,17.84,-,-,17.6
CC(=O)NCCNc1cc(C)nc2cc(C)nn12,-0.4847,22.72,-26.49,3.852,3.056
CC(C)CC(=O)N1CCN(c2cc(N(C)C)cnn2)CC1,4.107,-17.74 & 5.682,-28.65,1.03,-1.673
Cc1nc(C)n(CC2CCCCN2CCOc2cccc(C#N)c2)n1 (stereo not given),-6.277,14.77,-5.098,-1.539,2.613
COc1cc(CN2CCN(c3cccc(OC)c3)C(=O)C2)cc(OC)c1,-2.164,-0.5901,-3.181,2.779,-4.187
O=C(c1ccc(F)cc1Cl)N1CCn2c(nnc2C(F)(F)F)C1,-18.51,9.582,7.145,4.582,4.253
CC(=O)N1[C@H](Cn2cncn2)C[C@@H]2CN(c3ccc(C)nn3)CC[C@@H]21,6.909,-,-13.4,-0.3283,-
CC(C)(C)n1cc(C(=O)O)c(-c2ccc(F)cc2F)n1,4.25,8.635,-14.03,5.981,-7.019
COc1cccc2c3c(c(=O)n(C)c12)CCC(C)(C)O3,-8.461,-2.257,-29.64,3.384,12.41
CC(C)NC(=O)C1(Cc2ccccc2-c2cccs2)CCNC1 (stereo not given),-3.497,27.12 & 14.49,2.823,1.667,-10.04
COC(=O)C(NC(=O)C1CCCC1)c1cc(F)ccc1F (stereo not given),-21.26,13.67,-4.2,0.7054,4.433
CC1CN(C(=O)c2cc(=O)[nH]c3ccc(F)cc23)CCO1 (stereo not given),-1.702,-3.043,6.5,-9.677,-1.634
O=C(O)c1c(-c2ccncc2)ncc2c1CCN(C1CCOC1)C2 (stereo not given),4.793,-,-21.51,11.02,-
O=C(CCn1nc(C(=O)Nc2ccccc2)ccc1=O)Nc1nccs1,-7.568,12.33,-12.05,1.833,11.21
Cc1cc(C)n(CCCN(C)C(=O)C2COc3ccccc3C2)n1 (stereo not given),10.67,-10.9,-3.465,-5.13,-2.128
COCC(=O)N1CCC(c2nc3ccc(N4CCCC4)cn3n2)CC1.O=C(O)C(F)(F)F,-,-7.956,-,-,10.74
O=C(O)C(F)(F)F.O=C(O)C(F)(F)F.[H][C@@]12CN(Cc3cccs3)C[C@]1([H])OCCN2c1ccc(C)nn1,-,10.51,-,-,-7.706
Cc1nc2c(c(N3CC=CC3)n1)CCN(c1ncccc1C(N)=O)CC2,-3.807,22.98,-27.33,4.922,-3.17
CC1CCN(C(=O)C2CC(=O)N(c3cnn(C(C)C)c3)C2)CC1 (stereo not given),14.61,16.36,-3.496,1.601,12.29
COc1ccc2c(c1)OCC(CNC(=O)c1ccc(=O)n(C)c1)C2 (stereo not given),-5.65,33.68,-,5.143,-3.738
O=c1cc(N2CCCCC2)cnn1C[C@H](O)CO,9.511,2.596,2.482,1.596,-2.269
CNC(=O)c1nc2c(s1)CCN(C(=O)c1ccccc1)CC2,-15.25,-4.822,4.992,5.577,4.901
CNC(=O)c1cccc(C2CNCCN2C(=O)c2cccc(F)c2)c1.Cl (stereo not given),-,12.29,-,-,12.4
CN(CCN1CCOC1=O)CC(=O)Nc1cc(F)cc(F)c1,-15.66,3.54,-27.31,4.17,-15.56
COc1ncccc1NC(=O)N1CCC(C(=O)NC(C)C)CC1,-3.21,34.07,-23.41,2.248,-19.68
CC(C)(O)CN1CCN(C(=O)c2cc3ccccc3c(=O)[nH]2)CC1,-10.29,0.8714,-13.31,5.676,-2.262
NC(=O)CCOc1ccc(NC(=O)c2ccccc2OC(F)F)cc1,-0.1073,-8.23,16.31,1.758,0.6813
CC(=O)NCCNCC1(O)CCCN(CCC2CCCCC2)C1=O (stereo not given),3.072,-2.817,-7.048,-4.645,10.46
CC(C)(C)CN1CCCC12CCN(S(=O)(=O)c1ccccc1)C2.O=C(O)C(F)(F)F (stereo not given),-,13.46,-,-,-0.8565
CC(C)c1cc(NCC2(N(C)C)CCCC2)ncn1,-10.91,15.93,-19.08,2.245,-0.2647
COC(=O)CC(c1cccc(OC(F)F)c1)c1oc(C)cc(=O)c1O (stereo not given),-2.231,18.17 & 28.05,-10.55,1.975,3.474
O=C(O)C(F)(F)F.[H][C@@]12CCCO[C@]1([H])[C@H](NS(=O)(=O)CC)CN(Cc1cc(C)on1)C2,-,14.69,-,-,2.924
CCn1ncc2c1CN(C(=O)c1cc(C)oc1C)CC2COC.O=C(O)C(F)(F)F (stereo not given),-,-38.74,-,-,-10.07
CC(C)Oc1cccc(C(O)CNC(=O)CCc2ccncc2)c1 (stereo not given),-13.3,-20.49,-5.873,1.566,-1.812
CN(C)C(=O)COCC1CN(Cc2cccs2)Cc2ncn(C)c21 (stereo not given),-2.705,-,-37.02,-0.6714,-
Cc1c(C(=O)N2CCC(C(=O)c3nc4ccccc4s3)CC2)cnn1C,-7.159,-57.06,16.46,-1.418,14.43
CCCC(=O)Nc1ccc2c(c1)C1(CCOCC1)CN2CCOC.O=C(O)C(F)(F)F,-,32.17,-,-,-22.37
[H][C@]12CCC[C@@]1(COCC1CCOCC1)CN(S(C)(=O)=O)C2,-,20.03,-,-,4.987
CS(=O)(=O)N1CC2(CCN(CC3CCCCC3)C2)Cc2ccccc21 (stereo not given),11.38,22.79,-10.43,0.6536,4.606
CCN(C(C)=O)C(c1ccc(Cl)cc1)c1ccccn1 (stereo not given),-10.28,-5.319,-10.04,-1.122,7.969
Cn1ncc2c1NC(=O)CC2c1cccs1 (stereo not given),-9.295,28.49,-5.461,6.297,25.07
Cc1cc(C)cc(OCC(O)CN2CCN(c3nccs3)CC2)c1 (stereo not given),5.815,-4.613,-11.13,2.722,6.279
Cn1ccnc1CN1CCOC(Cc2ccccc2)C1 (stereo not given),-5.5,37.94,-0.4519,0.2861,-4.859
CC(C)c1cc(C2CCCN2C(=O)CN2C(=O)CCNC2=O)no1 (stereo not given),-3.551,-12.03,-3.652,2.248,6.747
Cc1cc(NC(=O)CCN2CCn3c(C)nnc3C2)no1,-3.934,-1.549,-8.629,9.665,0.2316
O=C(O)C(F)(F)F.O=C(O)C(F)(F)F.[H][C@@]12CN(CC)C[C@]1([H])[C@H](OC)CCN2c1ncc(F)cn1,-,-29.34 & 4.075,-,-,4.661
O=C(c1n[nH]c2c1CN(C1CCOC1)CC2)N1CCOCC1 (stereo not given),3.309,-,-24.98,1.541,-
[H][C@@]12C[C@H](C(=O)NC3CCC3)[C@@]([H])(CN(S(=O)(=O)c3cccc(C)c3)C1)O2,-,12.04,-,-,-5.372
COc1c(CNC(c2ccc(F)cc2)c2nccn2C)c(C)nn1C (stereo not given),7.053,4.997,-20.83,-0.6912,-15.38
CC(=O)N1CC[C@@H]2O[C@H](C(=O)Nc3nc(C)cs3)C[C@@H]21,-2.651,-,11.14,4.054,-
c1cc(CNCC2CNc3ccnn3C2)cc(N2CCOCC2)n1 (stereo not given),1.74,14.03,5.036,0.6888,5.437
CC(=O)N1CCC2(C1)c1ccccc1S(=O)(=O)N2CCC(C)C (stereo not given),-12.28,13.16,-17.52,-0.2595,13.5
COCCNC(=O)CN1CC=C(n2c(C)nc(=O)c3ccccc32)CC1,-27.23,40.79,-13.54,1.439,2.405
CN(C)C(=O)CO[C@H]1CN(Cc2ccc(F)cc2)[C@@H]2CCCO[C@H]12,-1.88,-,-17.09,2.955,-
CCC(NC(=O)C1CCN(S(C)(=O)=O)CC1)c1ccc(OC)c(C)c1 (stereo not given),-19.32,-10.58,-5.065,-2.167,10.12
CC(C)CC1SCC(=O)Nc2c1cnn2-c1ccc(F)cc1 (stereo not given),4.248,15.66,-32.29,6.239,0.4782
CN(C)CCN1CCOCC12CCN(C(=O)C1CC1)CC2.O=C(O)C(F)(F)F.O=C(O)C(F)(F)F,-,10.92,-,-,14.43

7 of the entries, repeated:

{"structure": "CC1CN(C(=O)c2cc(=O)[nH]c3ccc(F)cc23)CCO1", "stereo": "stereo not given", "ClpP1P2": -1.702, "Leishmania in macrophages": -3.043, "Pks13 thioesterase": 6.5, "PfKRS1": -9.677, "Toxoplasma": -1.634}
{"structure": "Cc1cc(C)cc(OCC(O)CN2CCN(c3nccs3)CC2)c1", "stereo": "stereo not given", "ClpP1P2": 5.815, "Leishmania in macrophages": -4.613, "Pks13 thioesterase": -11.13, "PfKRS1": 2.722, "Toxoplasma": 6.279}
{"structure": "COCC(=O)N1CCC(c2nc3ccc(N4CCCC4)cn3n2)CC1.O=C(O)C(F)(F)F", "Leishmania in macrophages": -7.956, "Toxoplasma": 10.74}
{"structure": "CS(=O)(=O)N1CC2(CCN(CC3CCCCC3)C2)Cc2ccccc21", "stereo": "stereo not given", "ClpP1P2": 11.38, "Leishmania in macrophages": 22.79, "Pks13 thioesterase": -10.43, "PfKRS1": 0.6536, "Toxoplasma": 4.606}
{"structure": "Cc1nc2c(c(N3CC=CC3)n1)CCN(c1ncccc1C(N)=O)CC2", "ClpP1P2": -3.807, "Leishmania in macrophages": 22.98, "Pks13 thioesterase": -27.33, "PfKRS1": 4.922, "Toxoplasma": -3.17}
{"structure": "CC1CCN(C(=O)C2CC(=O)N(c3cnn(C(C)C)c3)C2)CC1", "stereo": "stereo not given", "ClpP1P2": 14.61, "Leishmania in macrophages": 16.36, "Pks13 thioesterase": -3.496, "PfKRS1": 1.601, "Toxoplasma": 12.29}
{"structure": "CC(C)(C)CN1CCCC12CCN(S(=O)(=O)c1ccccc1)C2.O=C(O)C(F)(F)F", "stereo": "stereo not given", "Leishmania in macrophages": 13.46, "Toxoplasma": -0.8565}